Hit rate of the full screen: of about 320,000 compounds, about 22,000 (6.9%) were called active. This list was built around the results that the source calls inconclusive (neither active nor inactive); the mix of calls is not that of the screen. Calls follow the shape of the dose curve; as a rule, active = well fitted inhibition curve with a large enough effect; inconclusive = small, poorly fitted or top-dose-only effect, or another doubt; inactive = no such curve, though single readings can be large or run the other way. Potencies beside an inconclusive call are fits to weak or partial responses and may not hold up.
Assay: Primary qHTS for delayed death inhibitors of the malarial parasite plastid, 96 hour incubation
Conditions: P. falciparum luciferase reporter growth; series mostly up to 28.7 µM
Procedure, shortened: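 Compounds incubated with erythrocytes infected by luciferase-expressing P. falciparum (2% hematocrit, 0.05% parasitemia final) for 96 hours, 37 C in 5% CO2. Growth inhibition scored as decreased luciferase luminescence.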
Potency is read from the fitted curve at half-maximal effect.

Row | SMILES | Potency
1 | COC(=O)c1c(-c2ccccc2)noc1C | inactive
2 | COc1ccc2cc(C3(C)NC(=O)N(CC(=O)Nc4c(C)n(C)n(-c5ccccc5)c4=O)C3=O)ccc2c1 (centres undefined) | inconclusive: 13.1 µM [inhibitor, single point]
3 | COc1ccc(NC(=S)NCCCN2CCCC2)cc1Cl | inactive
4 | COc1ccc(-c2nc3ccccc3c(=O)n2CCOc2ccc(C)cc2C)cc1 | inconclusive: 16.5 µM [inhibitor, single point]
5 | Cc1ccc(CCNC(=O)c2cc(-c3ccncc3)nc3ccccc23)cc1 | inconclusive: 16.5 µM [inhibitor, partial curve, poor fit]
6 | CN(CC(=O)Nc1ccc(F)c(F)c1F)C(=O)CCCc1nc2ccccc2c(=O)[nH]1 | inconclusive: 18.5 µM [inhibitor, single point]
7 | Cc1ccc(N2C(=O)[C@@H]3C(c4cccnc4)=NO[C@@H]3C2=O)c(C)c1 | inconclusive: 4.15 µM [inhibitor, partial curve, poor fit]
8 | c1ccc(-c2nccc(-c3ccco3)n2)nc1 | inconclusive: 18.5 µM [inhibitor, single point]
9 | CN1CCN(CCc2cn3ncc(C#N)c3nc2-c2ccc(F)cc2)CC1 | inconclusive: 14.7 µM [inhibitor, partial curve, poor fit]
10 | COc1cc(-n2c(=O)c3ccccc3n(CC(=O)c3ccc(F)cc3)c2=O)cc(OC)c1OC | inconclusive: 0.465 µM [inhibitor, partial curve]
11 | O=C(NCCc1ccccc1)c1ccccc1NC(=O)C1CC=CCC1C(=O)O (centres undefined) | inactive
12 | C[C@@H](C(=O)Nc1cccc(S(=O)(=O)N2CCOCC2)c1)N1C(=O)C2CC=CCC2C1=O (some centres undefined) | inconclusive: 6.57 µM [inhibitor, partial curve, poor fit]
13 | CC(=O)N(C(C)=O)c1ccc2nc(C)[nH]c(=O)c2c1 | inconclusive: 10.4 µM [inhibitor, single point]
14 | COc1cc2c(cc1OC)C(COc1ccccc1OC)N(C(=O)c1ccco1)CC2 (centres undefined) | active: 6.57 µM
15 | COc1cc(/C=N/Nc2nc3c(c(=O)n(C)c(=O)n3C)n2Cc2ccccc2)ccc1OC(=O)c1ccco1 | active: 9.28 µM
16 | OC(c1cccs1)(c1cccs1)C1C[N+]2(CF)CCC1CC2 (centres undefined) | active: 2.33 µM
17 | NC(=O)C1(N2CCCCC2)CCN(C(=S)NCCc2ccccc2)CC1 | inconclusive: 14.7 µM [inhibitor, single point]
18 | CC(NC(=O)c1ccc2ccccc2n1)c1ccc(S(N)(=O)=O)cc1 (centres undefined) | inactive
19 | O=C(CNS(=O)(=O)c1ccc(Br)s1)N1CCC(N2CCCCC2)CC1 | inactive

Some of these compounds in order of molar mass, rising.
Row | SMILES | Potency
7 | Cc1ccc(N2C(=O)[C@@H]3C(c4cccnc4)=NO[C@@H]3C2=O)c(C)c1 | inconclusive: 4.15 µM [inhibitor, partial curve, poor fit]
18 | CC(NC(=O)c1ccc2ccccc2n1)c1ccc(S(N)(=O)=O)cc1 (centres undefined) | inactive
11 | O=C(NCCc1ccccc1)c1ccccc1NC(=O)C1CC=CCC1C(=O)O (centres undefined) | inactive
